# Laboratory results as given in patent CN103421115A.
# Chains of the proteins cited; added tags and fusions are not shown. Residues count along the entry.
# UniProt P28907, residues 43-300: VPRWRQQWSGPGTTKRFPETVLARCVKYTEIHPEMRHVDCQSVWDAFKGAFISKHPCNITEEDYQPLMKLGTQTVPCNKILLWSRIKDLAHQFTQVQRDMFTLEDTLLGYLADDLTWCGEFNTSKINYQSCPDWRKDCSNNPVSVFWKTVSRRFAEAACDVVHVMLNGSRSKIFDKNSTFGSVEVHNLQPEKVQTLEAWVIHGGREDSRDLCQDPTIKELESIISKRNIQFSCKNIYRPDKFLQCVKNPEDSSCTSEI
# No constants are given. Whether binding was seen depends on the method and setting. Some entries that bind do so weakly or less than the wild type.
# Molecular target: 人工合成的CD38多肽 (GenBank:BAA18966.1) (UniProt P28907)
# Assay: ELISA of crude periplasmic extract on coated CD38, anti-HA detection, OD405; a clone is positive when sample OD is more than 3 times control OD
row,Binder,binding
1,CD38纳米抗体 VHH链 SEQ ID NO:15 (VHH) VHH: QVQLQESGGGSVQAGGSLRLSCAASEYNFSTFCMGWFRQALGQEREGVAAISTNPLPTAYADSVKGRFTISRDGDKNVAYLEMHNLRPDDTAMYYCAADRLCGALCSQTQFDYWGQGTQVTVSS,binds
2,CD38纳米抗体 VHH链 SEQ ID NO:16 (VHH) VHH: QVQLQESGGGSVQAGGSLRLSCAASEYTSCTSCMGWFRQALGQEREGVAAISKIGLATAYADSVKGRFTISRDGDKNVAYLEMHNLRPDDTAMYYCAAHRVCRVLCSQRNYVYWGQGTQVTVSS,binds
